Assay results from patent publication EP0661292A1, “Orally active renin inhibitors” (PFIZER INC., priority 1990, dated 1991).
Some of these results come from one statement about several compounds together.

Biological target: T1, human plasma renin (Homo sapiens, UniProt P00797)
T1 construct: Human plasma (or plasma from other species) contains both A₀ and renin; from tissue; host or cells: human EDTA plasma
T1 sequence (P00797 67-406): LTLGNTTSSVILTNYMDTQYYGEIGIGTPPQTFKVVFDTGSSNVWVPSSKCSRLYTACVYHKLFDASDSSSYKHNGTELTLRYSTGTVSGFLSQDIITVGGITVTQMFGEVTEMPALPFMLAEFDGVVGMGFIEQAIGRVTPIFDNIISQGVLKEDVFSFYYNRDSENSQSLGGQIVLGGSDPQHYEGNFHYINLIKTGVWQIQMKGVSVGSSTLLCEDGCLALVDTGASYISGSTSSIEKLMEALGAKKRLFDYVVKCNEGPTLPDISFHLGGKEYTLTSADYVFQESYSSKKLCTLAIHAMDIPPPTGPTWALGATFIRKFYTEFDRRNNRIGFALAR
Assay: Renin inhibition assay (inhibition of human plasma renin activity, angiotensin I generation measured by RIA)
Format: biochemical
Settings: inhibition of human plasma renin activity at pH 7.4; read-out: IC₅₀

SMILES | IC50
CSC[C@H](NC(=O)[C@H](Cc1ccccc1)NC(=O)N1CCC(N2CCCCC2)CC1)C(=O)N[C@@H](CC1CCCCC1)[C@@H](O)C(=O)OC(C)C [Example 16, 4-(1-Piperidino)piperidine-1-carbonyl-Phe-SMeCys-norCSta Isopropyl Ester] | < 50 nM
CSC[C@H](NC(=O)[C@H](Cc1ccccc1)NC(=O)N1CCC(N2CCCC2)CC1)C(=O)N[C@@H](CC1CCCCC1)[C@@H](O)[C@@H](O)CC(C)C [Example 37, 4-(1-Pyrrolidinyl)piperidine-1-carbonyl-Phe-SMeCys-2S-amino-1-cyclohexyl-(3R, 4S)-dihydroxy-6-methylheptane] | < 50 nM
CSC[C@H](NC(=O)[C@H](Cc1ccccc1)NC(=O)N1CCC(NCCO)CC1)C(=O)N[C@@H](CC1CCCCC1)[C@@H](O)C(=O)OC(C)C [Example 18, 4-(2-Hydroxyethylamino)-1-carbonyl-Phe-SMeCys-orCStaIsopropyl Ester] | < 50 nM
COCCNC1CCN(C(=O)N[C@@H](Cc2ccccc2)C(=O)N[C@@H](CSC)C(=O)N[C@@H](CC2CCCCC2)[C@@H](O)C(=O)OC(C)C)CC1 [Example 20, 4-(2-Methoxyethylamino)piperidine-1-carbonyl-Phe-SMeCys-norCSta Isopropyl Ester] | < 50 nM
COc1ccc(C[C@H](NC(=O)N2CCC(N(C)C)CC2)C(=O)N[C@@H](CSC)C(=O)N[C@@H](CC2CCCCC2)[C@@H](O)C(=O)OC(C)C)cc1 [Example 11, 4-Dimethylaminopiperidine-1-carbonyl-OMeTyr-SMeCys-norCSta Isopropyl Ester] | < 50 nM
CC(C)C[C@H](O)[C@H](O)[C@H](CC1=CCCCC1)NC(=O)OC(C)(C)C [Example 13, BOC-2S-amino-1-[1'-cyclohexenyl]-(3R,4S)-dihydroxy-6-methylheptane] | < 50 nM
CCOC[C@H](NC(=O)[C@H](Cc1ccccc1)NC(=O)N1CCC(N(C)C)CC1)C(=O)N[C@@H](CC1CCCCC1)[C@@H](O)C(=O)OC(C)C [Example 24, 4-Dimethylaminopiperidine-1-carbonyl-Phe-OEtSer-norCSta Isopropyl Ester] | < 50 nM
